Source: PMC5484543
These are yes or no findings as the source states them, for the method shown. Binding seen in cells or lysates may run through a third protein. These calls come from enrichment with a bait or labelling near it, and not all partners need be listed. Sequences can lack the tags named with a protein.

T1: 3xFLAG-B12 (UniProt Q9NXW2)
T1 sequence: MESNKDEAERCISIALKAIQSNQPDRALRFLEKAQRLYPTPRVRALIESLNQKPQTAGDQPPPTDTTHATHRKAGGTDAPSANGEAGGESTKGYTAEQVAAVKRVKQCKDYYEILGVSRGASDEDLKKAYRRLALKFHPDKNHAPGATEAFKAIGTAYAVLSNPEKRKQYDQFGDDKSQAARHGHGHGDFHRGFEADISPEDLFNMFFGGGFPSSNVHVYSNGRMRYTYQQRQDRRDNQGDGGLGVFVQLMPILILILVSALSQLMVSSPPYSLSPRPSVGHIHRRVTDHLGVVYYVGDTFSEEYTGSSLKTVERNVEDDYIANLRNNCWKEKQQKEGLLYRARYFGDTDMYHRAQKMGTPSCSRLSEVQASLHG

T2: 3xFLAG-B12, Q9NXW2
T2 chain: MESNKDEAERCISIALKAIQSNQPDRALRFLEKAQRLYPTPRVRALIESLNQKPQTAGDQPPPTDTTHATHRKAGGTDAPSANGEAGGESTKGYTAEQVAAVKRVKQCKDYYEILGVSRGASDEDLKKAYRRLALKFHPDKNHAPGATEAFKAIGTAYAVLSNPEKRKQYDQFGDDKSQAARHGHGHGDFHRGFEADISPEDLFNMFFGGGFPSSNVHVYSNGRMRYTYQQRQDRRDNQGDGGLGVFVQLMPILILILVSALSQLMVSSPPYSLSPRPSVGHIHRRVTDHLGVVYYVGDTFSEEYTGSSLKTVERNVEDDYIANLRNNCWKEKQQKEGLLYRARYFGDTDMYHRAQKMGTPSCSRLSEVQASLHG


Assays:
3xFLAG-B12 = target: T1, 3xFLAG-B12; assay: affinity purification with mass spectrometry; 3xFLAG-B12 stable Flp-In 293 T-REx cells; digitonin-permeabilised, pellet lysed in 50 mM Hepes pH 7.5, 150 mM NaCl, 1% deoxy Big CHAP; anti-FLAG M2 antibody and Protein G magnetic beads, 4°C; eluted with 3xFLAG peptide; shot gun mass spectrometry; parental cells as control
3xFLAG-B12, Q9NXW2 = target: T2, 3xFLAG-B12, Q9NXW2; assay: as above; conditions: remark: other sources report otherwise

Row | binding (3xFLAG-B12) | binding (3xFLAG-B12, Q9NXW2) | Binder
1 | binds |  | Erlin2 (endogenous) (protein, UniProt O94905 1-339) MAQLGAVVAVASSFFCASLFSAVHKIEEGHIGVYYRGGALLTSTSGPGFHLMLPFITSYKSVQTTLQTDEVKNVPCGTSGGVMIYFDRIEVVNFLVPNAVYDIVKNYTADYDKALIFNKIHHELNQFCSVHTLQEVYIELFDQIDENLKLALQQDLTSMAPGLVIQAVRVTKPNIPEAIRRNYELMESEKTKLLIAAQKQKVVEKEAETERKKALIEAEKVAQVAEITYGQKVMEKETEKKISEIEDAAFLAREKAKADAECYTAMKIAEANKLKLTPEYLQLMKYKAIASNSKIYFGKDIPNMFMDSAGSVSKQFEGLADKLSFGLEDEPLETATKEN
2 | binds |  | ESYT1 (protein, UniProt Q9BSJ8 1-1104) MERSPGEGPSPSPMDQPSAPSDPTDQPPAAHAKPDPGSGGQPAGPGAAGEALAVLTSFGRRLLVLIPVYLAGAVGLSVGFVLFGLALYLGWRRVRDEKERSLRAARQLLDDEEQLTAKTLYMSHRELPAWVSFPDVEKAEWLNKIVAQVWPFLGQYMEKLLAETVAPAVRGSNPHLQTFTFTRVELGEKPLRIIGVKVHPGQRKEQILLDLNISYVGDVQIDVEVKKYFCKAGVKGMQLHGVLRVILEPLIGDLPFVGAVSMFFIRRPTLDINWTGMTNLLDIPGLSSLSDTMIMDSIAAFLVLPNRLLVPLVPDLQDVAQLRSPLPRGIIRIHLLAARGLSSKDKYVKGLIEGKSDPYALVRLGTQTFCSRVIDEELNPQWGETYEVMVHEVPGQEIEVEVFDKDPDKDDFLGRMKLDVGKVLQASVLDDWFPLQGGQGQVHLRLEWLSLLSDAEKLEQVLQWNWGVSSRPDPPSAAILVVYLDRAQDLPLKKGNKEPNPMVQLSIQDVTQESKAVYSTNCPVWEEAFRFFLQDPQSQELDVQVKDDSRALTLGALTLPLARLLTAPELILDQWFQLSSSGPNSRLYMKLVMRILYLDSSEICFPTVPGCPGAWDVDSENPQRGSSVDAPPRPCHTTPDSQFGTEHVLRIHVLEAQDLIAKDRFLGGLVKGKSDPYVKLKLAGRSFRSHVVREDLNPRWNEVFEVIVTSVPGQELEVEVFDKDLDKDDFLGRCKVRLTTVLNSGFLDEWLTLEDVPSGRLHLRLERLTPRPTAAELEEVLQVNSLIQTQKSAELAAALLSIYMERAEDLPLRKGTKHLSPYATLTVGDSSHKTKTISQTSAPVWDESASFLIRKPHTESLELQVRGEGTGVLGSLSLPLSELLVADQLCLDRWFTLSSGQGQVLLRAQLGILVSQHSGVEAHSHSYSHSSSSLSEEPELSGGPPHITSSAPELRQRLTHVDSPLEAPAGPLGQVKLTLWYYSEERKLVSIVHGCRSLRQNGRDPPDPYVSLLLLPDKNRGTKRRTSQKKRTLSPEFNERFEWELPLDEAQRRKLDVSVKSNSSFMSRERELLGKVQLDLAETDLSQGVARWYDLMDNKDKGSS

Second part, the binder before the results:

Row | Binder | binding (3xFLAG-B12) | binding (3xFLAG-B12, Q9NXW2)
3 | RFX7 (protein, UniProt Q2KHR2 1-1460) MAEEQQQPPPQQPDAHQQLPPSAPNSGVALPALVPGLPGTEASALQHKIKNSICKTVQSKVDCILQEVEKFTDLEKLYLYLQLPSGLSNGEKSDQNAMSSSRAQQMHAFSWIRNTLEEHPETSLPKQEVYDEYKSYCDNLGYHPLSAADFGKIMKNVFPNMKARRLGTRGKSKYCYSGLRKKAFVHMPTLPNLDFHKTGDGLEGAEPSGQLQNIDEEVISSACRLVCEWAQKVLSQPFDTVLELARFLVKSHYIGTKSMAALTVMAAAPAGMKGITQPSAFIPTAESNSFQPQVKTLPSPIDAKQQLQRKIQKKQQEQKLQSPLPGESAAKKSESATSNGVTNLPNGNPSILSPQPIGIVVAAVPSPIPVQRTRQLVTSPSPMSSSDGKVLPLNVQVVTQHMQSVKQAPKTPQNVPASPGGDRSARHRYPQILPKPANTSALTIRSPTTVLFTSSPIKTAVVPASHMSSLNVVKMTTISLTPSNSNTPLKHSASVSSATGTTEESRSVPQIKNGSVVSLQSPGSRSSSAGGTSAVEVKVEPETSSDEHPVQCQENSDEAKAPQTPSALLGQKSNTDGALQKPSNEGVIEIKATKVCDQRTKCKSRCNEMLPGTSTGNNQSTITLSVASQNLTFTSSSSPPNGDSINKDPKLCTKSPRKRLSSTLQETQVPPVKKPIVEQLSAATIEGQKQGSVKKDQKVPHSGKTEGSTAGAQIPSKVSVNVSSHIGANQPLNSSALVISDSALEQQTTPSSSPDIKVKLEGSVFLLDSDSKSVGSFNPNGWQQITKDSEFISASCEQQQDISVMTIPEHSDINDLEKSVWELEGMPQDTYSQQLHSQIQESSLNQIQAHSSDQLPLQSELKEFEPSVSQTNESYFPFDDELTQDSIVEELVLMEQQMSMNNSHSYGNCLGMTLQSQSVTPGAPMSSHTSSTHFYHPIHSNGTPIHTPTPTPTPTPTPTPTPTPTSEMIAGSQSLSRESPCSRLAQTTPVDSALGSSRHTPIGTPHSNCSSSVPPSPVECRNPFAFTPISSSMAYHDASIVSSSPVKPMQRPMATHPDKTKLEWMNNGYSGVGNSSVSGHGILPSYQELVEDRFRKPHAFAVPGQSYQSQSRHHDTHFGRLTPVSPVQHQGATVNNTNKQEGFAVPAPLDNKGTNSSASSNFRCRSVSPAVHRQRNLSGSTLYPVSNIPRSNVTPFGSPVTPEVHVFTNVHTDACANNIAQRSQSVPLTVMMQTAFPNALQKQANSKKITNVLLSKLDSDNDDAVRGLGMNNLPSNYTARMNLTQILEPSTVFPSANPQNMIDSSTSVYEFQTPSYLTKSNSTGQINFSPGDNQAQSEIGEQQLDFNSTVKDLLSGDSLQTNQQLVGQGASDLTNTASDFSSDIRLSSELSGSINDLNTLDPNLLFDPGRQQGQDDEATLEELKNDPLFQQICSESMNSMTSSGFEWIESKDHPTVEMLG | binds | 
4 | Sel1L, Q9UBV2 22-794 (protein) SSDEEGSQDESLDSKTTLTSDESVKDHTTAGRVVAGQIFLDSEESELESSIQEEEDSLKSQEGESVTEDISFLESPNPENKDYEEPKKVRKPALTAIEGTAHGEPCHFPFLFLDKEYDECTSDGREDGRLWCATTYDYKADEKWGFCETEEEAAKRRQMQEAEMMYQTGMKILNGSNKKSQKREAYRYLQKAASMNHTKALERVSYALLFGDYLPQNIQAAREMFEKLTEEGSPKGQTALGFLYASGLGVNSSQAKALVYYTFGALGGNLIAHMVLGYRYWAGIGVLQSCESALTHYRLVANHVASDISLTGGSVVQRIRLPDEVENPGMNSGMLEEDLIQYYQFLAEKGDVQAQVGLGQLHLHGGRGVEQNHQRAFDYFNLAANAGNSHAMAFLGKMYSEGSDIVPQSNETALHYFKKAADMGNPVGQSGLGMAYLYGRGVQVNYDLALKYFQKAAEQGWVDGQLQLGSMYYNGIGVKRDYKQALKYFNLASQGGHILAFYNLAQMHASGTGVMRSCHTAVELFKNVCERGRWSERLMTAYNSYKDGDYNAAVIQYLLLAEQGYEVAQSNAAFILDQREASIVGENETYPRALLHWNRAASQGYTVARIKLGDYHFYGFGTDVDYETAFIHYRLASEQQHSAQAMFNLGYMHEKGLGIKQDIHLAKRFYDMAAEASPDAQVPVFLALCKLGVVYFLQYIRETNIRDMFTQLDMDQLLGPEWDLYLMTIIALLLGTVIAYRQRQHQDMPAPRPPGPRPAPPQQEGPPEQQPPQ |  | binds
5 | DDOST (protein, UniProt P39656 43-456) SGPRTLVLLDNLNVRETHSLFFRSLKDRGFELTFKTADDPSLSLIKYGEFLYDNLIIFSPSVEDFGGNINVETISAFIDGGGSVLVAASSDIGDPLRELGSECGIEFDEEKTAVIDHHNYDISDLGQHTLIVADTENLLKAPTIVGKSSLNPILFRGVGMVADPDNPLVLDILTGSSTSYSFFPDKPITQYPHAVGKNTLLIAGLQARNNARVIFSGSLDFFSDSFFNSAVQKAAPGSQRYSQTGNYELAVALSRWVFKEEGVLRVGPVSHHRVGETAPPNAYTVTDLVEYSIVIQQLSNGKWVPFDGDDIQLEFVRIDPFVRTFLKKKGGKYSVQFKLPDVYGVFQFKVDYNRLGYTHLYSSTQVSVRPLQHTQYERFIPSAYPYYASAFSMMLGLFIFSIVFLHMKEKEKSD | binds | 
